From the supplement of paper PMC10849652
The other results are listed elsewhere or left out.

By UniProt entry, the sequences of proteins in these tests, tags left out. Where a name states a change or a piece, a line headed by the entry shows the natural chain unless it says otherwise.
UniProt Q96GG9: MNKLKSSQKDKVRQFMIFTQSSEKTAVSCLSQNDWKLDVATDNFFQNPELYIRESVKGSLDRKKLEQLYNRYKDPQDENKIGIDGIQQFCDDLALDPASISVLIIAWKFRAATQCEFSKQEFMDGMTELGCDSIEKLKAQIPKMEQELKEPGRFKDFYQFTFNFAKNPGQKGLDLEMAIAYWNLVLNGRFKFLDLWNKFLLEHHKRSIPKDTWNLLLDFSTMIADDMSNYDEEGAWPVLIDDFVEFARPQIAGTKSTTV
UniProt Q96C86: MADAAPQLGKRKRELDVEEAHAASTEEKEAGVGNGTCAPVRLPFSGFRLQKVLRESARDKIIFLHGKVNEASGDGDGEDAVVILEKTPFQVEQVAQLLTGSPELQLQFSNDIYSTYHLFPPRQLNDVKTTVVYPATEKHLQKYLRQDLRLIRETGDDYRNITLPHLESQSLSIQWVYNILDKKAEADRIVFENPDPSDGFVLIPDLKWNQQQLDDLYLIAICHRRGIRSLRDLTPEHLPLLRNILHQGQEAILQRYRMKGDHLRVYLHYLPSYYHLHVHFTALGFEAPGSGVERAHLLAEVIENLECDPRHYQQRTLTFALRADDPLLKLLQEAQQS
UniProt Q7L576: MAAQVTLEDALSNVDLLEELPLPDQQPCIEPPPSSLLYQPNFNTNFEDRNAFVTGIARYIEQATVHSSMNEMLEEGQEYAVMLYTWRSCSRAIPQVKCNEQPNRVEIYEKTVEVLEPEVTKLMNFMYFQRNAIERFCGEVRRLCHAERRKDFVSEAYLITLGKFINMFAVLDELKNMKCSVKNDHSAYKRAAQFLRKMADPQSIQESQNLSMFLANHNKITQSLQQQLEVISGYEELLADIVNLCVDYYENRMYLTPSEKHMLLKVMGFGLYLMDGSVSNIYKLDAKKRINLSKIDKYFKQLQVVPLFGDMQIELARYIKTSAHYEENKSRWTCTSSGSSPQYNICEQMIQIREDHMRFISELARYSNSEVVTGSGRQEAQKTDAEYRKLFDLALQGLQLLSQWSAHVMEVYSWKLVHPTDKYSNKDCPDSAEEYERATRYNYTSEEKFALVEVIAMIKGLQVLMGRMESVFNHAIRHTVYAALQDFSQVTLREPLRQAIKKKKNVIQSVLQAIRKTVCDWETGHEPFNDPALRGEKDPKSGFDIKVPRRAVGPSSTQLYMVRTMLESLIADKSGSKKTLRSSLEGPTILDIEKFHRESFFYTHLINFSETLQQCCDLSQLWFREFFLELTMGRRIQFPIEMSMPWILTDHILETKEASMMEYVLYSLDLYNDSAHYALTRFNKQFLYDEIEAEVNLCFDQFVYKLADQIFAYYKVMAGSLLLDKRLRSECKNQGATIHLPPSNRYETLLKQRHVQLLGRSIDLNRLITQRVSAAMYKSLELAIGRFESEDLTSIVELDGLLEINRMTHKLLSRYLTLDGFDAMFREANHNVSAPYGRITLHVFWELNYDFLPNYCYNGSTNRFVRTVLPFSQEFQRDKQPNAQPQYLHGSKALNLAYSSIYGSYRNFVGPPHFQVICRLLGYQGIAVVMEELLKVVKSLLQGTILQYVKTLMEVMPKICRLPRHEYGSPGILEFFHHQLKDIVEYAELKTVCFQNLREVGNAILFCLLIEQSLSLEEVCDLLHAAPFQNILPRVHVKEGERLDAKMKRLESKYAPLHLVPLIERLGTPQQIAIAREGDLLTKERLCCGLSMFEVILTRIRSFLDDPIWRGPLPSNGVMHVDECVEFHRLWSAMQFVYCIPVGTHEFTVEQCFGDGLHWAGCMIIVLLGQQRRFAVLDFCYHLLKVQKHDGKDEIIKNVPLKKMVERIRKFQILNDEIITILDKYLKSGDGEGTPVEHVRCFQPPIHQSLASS
UniProt P0DMU9: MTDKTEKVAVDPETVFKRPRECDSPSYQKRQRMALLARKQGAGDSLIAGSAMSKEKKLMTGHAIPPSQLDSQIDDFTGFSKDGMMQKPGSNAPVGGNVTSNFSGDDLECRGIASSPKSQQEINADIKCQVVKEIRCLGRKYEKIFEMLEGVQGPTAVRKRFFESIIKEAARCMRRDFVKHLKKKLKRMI
UniProt Q9P013: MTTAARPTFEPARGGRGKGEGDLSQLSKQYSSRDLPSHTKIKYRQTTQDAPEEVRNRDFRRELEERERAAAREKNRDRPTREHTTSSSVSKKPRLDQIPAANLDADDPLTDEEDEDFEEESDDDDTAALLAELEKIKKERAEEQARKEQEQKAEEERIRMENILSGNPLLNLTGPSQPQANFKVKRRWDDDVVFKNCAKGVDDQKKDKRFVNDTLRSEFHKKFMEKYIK
UniProt O00399, whole entry, looked up: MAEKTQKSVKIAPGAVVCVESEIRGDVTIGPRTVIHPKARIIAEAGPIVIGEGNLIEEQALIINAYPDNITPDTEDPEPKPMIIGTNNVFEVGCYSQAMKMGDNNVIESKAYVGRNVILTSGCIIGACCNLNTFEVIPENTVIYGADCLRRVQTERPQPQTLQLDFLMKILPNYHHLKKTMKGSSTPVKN
UniProt Q16850: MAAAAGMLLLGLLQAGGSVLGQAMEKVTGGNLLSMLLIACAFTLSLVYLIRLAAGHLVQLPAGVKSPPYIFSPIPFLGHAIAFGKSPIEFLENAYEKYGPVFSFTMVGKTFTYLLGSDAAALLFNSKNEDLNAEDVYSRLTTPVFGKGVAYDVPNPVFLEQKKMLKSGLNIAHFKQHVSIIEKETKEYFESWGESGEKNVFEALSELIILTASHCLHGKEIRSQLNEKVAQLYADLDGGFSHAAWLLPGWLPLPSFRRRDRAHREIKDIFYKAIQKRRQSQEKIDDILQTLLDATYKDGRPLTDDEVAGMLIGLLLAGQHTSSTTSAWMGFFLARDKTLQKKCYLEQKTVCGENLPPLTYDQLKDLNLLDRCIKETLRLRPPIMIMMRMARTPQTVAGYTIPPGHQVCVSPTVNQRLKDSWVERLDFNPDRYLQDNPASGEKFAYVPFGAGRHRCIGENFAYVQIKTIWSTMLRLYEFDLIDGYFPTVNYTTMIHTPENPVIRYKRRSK
UniProt Q14118: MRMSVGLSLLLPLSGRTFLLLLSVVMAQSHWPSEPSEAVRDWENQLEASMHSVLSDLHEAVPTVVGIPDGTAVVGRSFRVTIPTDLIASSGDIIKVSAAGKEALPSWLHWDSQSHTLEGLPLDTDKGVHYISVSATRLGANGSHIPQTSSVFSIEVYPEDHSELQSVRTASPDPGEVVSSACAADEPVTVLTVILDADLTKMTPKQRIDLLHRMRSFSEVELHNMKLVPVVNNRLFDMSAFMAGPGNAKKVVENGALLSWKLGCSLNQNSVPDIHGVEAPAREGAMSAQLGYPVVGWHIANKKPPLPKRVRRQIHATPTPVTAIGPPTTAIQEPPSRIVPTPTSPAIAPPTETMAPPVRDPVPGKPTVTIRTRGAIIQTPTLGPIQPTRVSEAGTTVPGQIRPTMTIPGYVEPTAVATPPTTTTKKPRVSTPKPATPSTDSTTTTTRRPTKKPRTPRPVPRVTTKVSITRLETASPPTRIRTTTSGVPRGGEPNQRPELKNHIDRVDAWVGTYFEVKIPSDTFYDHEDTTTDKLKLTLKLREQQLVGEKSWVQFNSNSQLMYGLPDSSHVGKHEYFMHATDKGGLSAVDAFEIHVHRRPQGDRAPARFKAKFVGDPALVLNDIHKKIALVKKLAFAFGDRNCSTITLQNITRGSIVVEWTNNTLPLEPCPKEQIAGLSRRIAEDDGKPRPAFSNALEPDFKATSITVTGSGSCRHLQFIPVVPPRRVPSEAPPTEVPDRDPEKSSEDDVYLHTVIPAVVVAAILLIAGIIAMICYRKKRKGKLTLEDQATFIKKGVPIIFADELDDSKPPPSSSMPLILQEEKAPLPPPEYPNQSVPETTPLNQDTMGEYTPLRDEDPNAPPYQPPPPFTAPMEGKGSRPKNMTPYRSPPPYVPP
UniProt P13498: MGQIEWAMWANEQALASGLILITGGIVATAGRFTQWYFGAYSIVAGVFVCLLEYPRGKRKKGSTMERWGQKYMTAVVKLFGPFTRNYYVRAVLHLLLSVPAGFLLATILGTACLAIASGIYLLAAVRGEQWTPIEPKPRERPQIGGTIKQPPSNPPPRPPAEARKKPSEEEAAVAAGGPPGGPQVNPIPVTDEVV
UniProt Q9Y4B6: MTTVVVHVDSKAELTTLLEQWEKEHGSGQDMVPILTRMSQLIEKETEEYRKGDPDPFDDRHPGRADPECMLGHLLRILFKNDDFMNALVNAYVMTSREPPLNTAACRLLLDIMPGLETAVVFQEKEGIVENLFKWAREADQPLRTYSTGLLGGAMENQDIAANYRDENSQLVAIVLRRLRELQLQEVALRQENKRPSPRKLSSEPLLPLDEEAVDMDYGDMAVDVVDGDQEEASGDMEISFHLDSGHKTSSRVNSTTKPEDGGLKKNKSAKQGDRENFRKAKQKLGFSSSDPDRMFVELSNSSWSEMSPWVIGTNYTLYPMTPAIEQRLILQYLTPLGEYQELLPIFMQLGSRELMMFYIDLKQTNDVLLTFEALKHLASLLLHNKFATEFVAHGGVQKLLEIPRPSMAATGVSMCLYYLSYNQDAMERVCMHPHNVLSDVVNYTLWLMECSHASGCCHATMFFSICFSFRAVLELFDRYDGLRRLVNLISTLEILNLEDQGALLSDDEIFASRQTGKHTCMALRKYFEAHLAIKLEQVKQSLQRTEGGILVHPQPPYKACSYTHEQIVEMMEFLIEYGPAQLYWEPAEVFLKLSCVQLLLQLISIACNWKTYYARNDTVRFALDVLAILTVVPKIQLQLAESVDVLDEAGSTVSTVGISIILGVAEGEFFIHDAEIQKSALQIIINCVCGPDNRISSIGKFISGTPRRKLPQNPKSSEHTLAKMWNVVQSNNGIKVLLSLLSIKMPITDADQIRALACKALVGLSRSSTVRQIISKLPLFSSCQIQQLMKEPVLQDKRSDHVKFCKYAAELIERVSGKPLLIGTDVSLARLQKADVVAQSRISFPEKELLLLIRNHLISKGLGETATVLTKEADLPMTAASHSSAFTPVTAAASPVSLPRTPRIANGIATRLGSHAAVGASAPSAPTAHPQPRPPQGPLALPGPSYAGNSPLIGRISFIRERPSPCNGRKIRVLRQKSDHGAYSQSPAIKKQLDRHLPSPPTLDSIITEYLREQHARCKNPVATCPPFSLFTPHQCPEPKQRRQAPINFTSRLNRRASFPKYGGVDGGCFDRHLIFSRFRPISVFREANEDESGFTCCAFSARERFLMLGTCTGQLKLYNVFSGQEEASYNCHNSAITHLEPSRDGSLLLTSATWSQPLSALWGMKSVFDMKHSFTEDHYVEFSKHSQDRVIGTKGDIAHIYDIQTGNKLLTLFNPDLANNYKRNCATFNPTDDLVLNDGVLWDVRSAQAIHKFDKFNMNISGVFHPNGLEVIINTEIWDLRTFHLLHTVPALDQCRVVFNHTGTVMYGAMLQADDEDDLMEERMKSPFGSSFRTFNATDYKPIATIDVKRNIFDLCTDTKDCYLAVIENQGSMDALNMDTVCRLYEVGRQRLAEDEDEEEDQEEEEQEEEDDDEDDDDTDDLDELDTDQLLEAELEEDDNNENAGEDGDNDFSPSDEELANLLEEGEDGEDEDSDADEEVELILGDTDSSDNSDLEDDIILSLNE
UniProt O60888: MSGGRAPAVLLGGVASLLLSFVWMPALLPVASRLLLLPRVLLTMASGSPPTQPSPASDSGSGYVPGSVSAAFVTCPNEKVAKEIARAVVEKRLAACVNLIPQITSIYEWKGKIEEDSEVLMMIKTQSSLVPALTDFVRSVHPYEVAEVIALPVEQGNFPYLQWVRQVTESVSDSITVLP
UniProt Q2VPK5: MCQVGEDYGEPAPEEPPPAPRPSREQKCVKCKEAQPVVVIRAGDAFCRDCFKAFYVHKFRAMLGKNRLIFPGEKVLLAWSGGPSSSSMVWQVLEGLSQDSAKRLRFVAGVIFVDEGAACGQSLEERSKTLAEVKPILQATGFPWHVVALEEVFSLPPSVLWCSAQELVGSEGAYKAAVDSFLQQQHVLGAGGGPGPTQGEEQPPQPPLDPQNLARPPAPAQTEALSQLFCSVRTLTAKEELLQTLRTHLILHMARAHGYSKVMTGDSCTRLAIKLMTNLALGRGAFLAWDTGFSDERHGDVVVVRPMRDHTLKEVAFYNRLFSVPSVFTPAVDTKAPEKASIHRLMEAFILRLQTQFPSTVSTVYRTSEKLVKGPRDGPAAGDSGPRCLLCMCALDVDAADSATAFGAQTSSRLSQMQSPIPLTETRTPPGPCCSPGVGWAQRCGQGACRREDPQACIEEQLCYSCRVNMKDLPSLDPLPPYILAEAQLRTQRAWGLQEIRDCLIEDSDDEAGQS

Key:
Experiment in all cases: log2 fold change, soluble protein after heating vs DMSO (PISA); higher = thermal stabilisation; K562 cells, 10 uM, 30 min; active = over 0.2 and 3.5 SD of the protein, either way, in both replicates (recomputed)
bafetinib = compound: Cc1ccc(NC(=O)c2ccc(CN3CC[C@H](N(C)C)C3)c(C(F)(F)F)c2)cc1Nc1nccc(-c2cncnc2)n1 [bafetinib]
In short: (§1)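 Quantification of soluble protein used TMTpro 16plex LC-MS/MS, with channel sums equalised. Samples were the supernatant after 21,000xg for 90 min of pooled aliquots from K562 cells (2×10^6 cells/mL) treated with 10 μM compound for 30 min, heated for 3 min over 48°C-58°C, and extracted in PBS with 0.5% NP-40 at 4°C. Values, from duplicates, describe thermal stability against control samples on a log2 fold-change scale.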

[1] = compound: Cc1cccc(CC(=O)N2CCc3c2ccc(-c2cn(C)c4ncnc(N)c24)c3F)n1
In short: as §1

nilotinib = compound: Cc1cn(-c2cc(NC(=O)c3ccc(C)c(Nc4nccc(-c5cccnc5)n4)c3)cc(C(F)(F)F)c2)cn1 [nilotinib]
In short: as §1

[2] = compound: Cc1nc(Nc2n[nH]c3c2CN(C(=O)N[C@H](CN(C)C)c2ccccc2)C3(C)C)c2sccc2n1
In short: as §1

dasatinib = compound: Cc1nc(Nc2ncc(C(=O)Nc3c(C)cccc3Cl)s2)cc(N2CCN(CCO)CC2)n1 [dasatinib]
In short: as §1

[3] = compound: Cc1ncc(-c2ccnc(Nc3ccc(S(C)(=O)=O)cc3)n2)n1C(C)C
In short: as §1

[4] = compound: Cn1cc(-c2ccc3c(c2)CCN3C(=O)Cc2cccc(C(F)(F)F)c2)c2c(N)ncnc21
In short: as §1

[5] = compound: Cn1cc(-c2ccc3nnc(C(F)(F)c4ccc5ncccc5c4)n3n2)cn1
In short: as §1

tipifarnib = compound: Cn1cncc1[C@@](N)(c1ccc(Cl)cc1)c1ccc2c(c1)c(-c1cccc(Cl)c1)cc(=O)n2C [tipifarnib]
In short: as §1

mubritinib = compound: FC(F)(F)c1ccc(/C=C/c2nc(COc3ccc(CCCCn4ccnn4)cc3)co2)cc1 [mubritinib]
In short: as §1

[6] = compound: NC(=O)Nc1cc(-c2cccc(F)c2)sc1C(=O)N[C@H]1CCCNC1
In short: as §1

[7] = compound: NC(=O)c1cnc(N[C@@H]2CCCC[C@@H]2N)nc1Nc1cccc(-n2nccn2)c1
In short: as §1

[8] = compound: NC1(c2ccc(-c3nc4ccn5c(=O)[nH]nc5c4cc3-c3ccccc3)cc2)CCC1
In short: as §1

[9] = compound: NCC(=O)Nc1ccc(-n2nc(C(F)(F)F)cc2-c2ccc3c(ccc4ccccc43)c2)cc1
In short: as §1

entinostat = compound: Nc1ccccc1NC(=O)c1ccc(CNC(=O)OCc2cccnc2)cc1 [entinostat]
In short: as §1

vorinostat = compound: O=C(CCCCCCC(=O)Nc1ccccc1)NO [vorinostat]
In short: as §1

citarinostat = compound: O=C(CCCCCCNC(=O)c1cnc(N(c2ccccc2)c2ccccc2Cl)nc1)NO [citarinostat]
In short: as §1

silmitasertib = compound: O=C(O)c1ccc2c(c1)nc(Nc1cccc(Cl)c1)c1ccncc12 [silmitasertib]
In short: as §1

[10] = compound: O=C1NC(=O)C(c2cnc3ccccn23)=C1c1cn2c3c(cc(F)cc13)CN(C(=O)N1CCCCC1)CC2
In short: as §1

[11] = compound: c1cc(OCCN2CCCCC2)cc(-c2n[nH]c3ccc(-c4nnc[nH]4)cc23)c1
In short: as §1

Target	log2 fold change (bafetinib)	log2 fold change [1]	log2 fold change (nilotinib)	log2 fold change [2]	log2 fold change (dasatinib)	log2 fold change [3]	log2 fold change [4]	log2 fold change [5]	log2 fold change (tipifarnib)	log2 fold change (mubritinib)	log2 fold change [6]	log2 fold change [7]	log2 fold change [8]	log2 fold change [9]	log2 fold change (entinostat)	log2 fold change (vorinostat)	log2 fold change (citarinostat)	log2 fold change (silmitasertib)	log2 fold change [10]	log2 fold change [11]
DCUN1D1 (UniProt Q96GG9)	inactive: -0.083	inactive: 0.026	inactive: -0.025	inactive: -0.018	inactive: -0.047	inactive: 0	inactive: 0.008	inactive: 0.03	inactive: -0.059	inactive: 0.015	inactive: -0.024	inactive: -0.048	inactive: -0.102	inactive: -0.01	inactive: 0.016	inactive: 0.002	inactive: 0.054	inactive: 0.002	inactive: -0.098	inactive: -0.02
CXorf56 (UniProt Q9H5V9)	inactive: 0.046	inactive: 0.011	inactive: -0.018	inactive: -0.073	inactive: -0.048	inactive: 0.039	inactive: -0.039	inactive: -0.102	inactive: 0.052	inactive: 0.055	inactive: -0.078	inactive: 0.006	inactive: -0.028	inactive: -0.12	inactive: -0.013	inactive: -0.006	inactive: 0.006	inactive: 0.004	inactive: -0.013	inactive: -0.062
DCPS (UniProt Q96C86)	inactive: -0.069	inactive: -0.002	inactive: 0.005	inactive: -0.016	inactive: 0.002	inactive: 0.015	inactive: -0.01	inactive: 0.036	inactive: 0.006	inactive: 0.031	inactive: -0.037	inactive: 0.001	inactive: -0.027	inactive: 0.068	inactive: -0.038	inactive: -0.035	inactive: -0.011	inactive: -0.025	inactive: -0.04	inactive: -0.014
CYFIP1 (UniProt Q7L576)	inactive: -0.064	inactive: 0.002	inactive: -0.015	inactive: -0.064	inactive: -0.05	inactive: -0.024	inactive: 0.049	inactive: -0.006	inactive: -0.011	inactive: 0.022	inactive: -0.088	inactive: -0.029	inactive: -0.143	inactive: 0.003	inactive: 0.02	inactive: -0.025	inactive: 0.031	inactive: 0.009	inactive: -0.039	inactive: -0.064
CT45A10 (UniProt P0DMU9)	inactive: 0.117	inactive: -0.026	inactive: -0.013	inactive: 0.035	inactive: -0.045	inactive: -0.043	inactive: -0.079	inactive: -0.123	inactive: 0.172	inactive: -0.07	inactive: 0.056	inactive: 0.046	inactive: 0.08	inactive: -0.15	inactive: -0.082	inactive: -0.002	inactive: -0.063	inactive: 0.072	inactive: 0.189	inactive: -0.082
CWC15 (UniProt Q9P013)	inactive: -0.067	inactive: -0.125	inactive: 0.009	inactive: 0.072	inactive: 0.044	inactive: 0.012	inactive: -0.032	inactive: 0.047	inactive: 0.041	inactive: 0.019	inactive: 0.036	inactive: -0.032	inactive: 0.028	inactive: -0.033	inactive: -0.021	inactive: -0.101	inactive: -0.079	inactive: -0.004	inactive: 0.046	inactive: 0.005
CTTN (UniProt Q14247)	inactive: -0.035	inactive: -0.064	inactive: 0.06	inactive: 0.011	inactive: 0.044	inactive: 0.028	inactive: 0.006	inactive: -0.012	inactive: 0.008	inactive: 0.03	inactive: 0.009	inactive: -0.025	inactive: 0.005	inactive: -0.006	inactive: -0.054	inactive: -0.043	inactive: 0.003	inactive: 0.011	inactive: -0.064	inactive: 0
DCTN6 (UniProt O00399)	inactive: -0.056	inactive: -0.041	inactive: 0.019	inactive: -0.029	inactive: 0.033	inactive: 0.016	inactive: 0.038	inactive: -0.088	inactive: -0.047	inactive: 0.049	inactive: -0.011	inactive: -0.012	inactive: -0.031	inactive: 0.01	inactive: 0.001	inactive: 0.05	inactive: 0.038	inactive: 0.011	inactive: -0.069	inactive: -0.11
DARS (UniProt P14868)	inactive: -0.023	inactive: 0	inactive: -0.015	inactive: 0.038	inactive: 0.055	inactive: 0.002	inactive: -0.035	inactive: -0.032	inactive: 0.015	inactive: 0.006	inactive: -0.008	inactive: -0.001	inactive: 0.028	inactive: 0.033	inactive: -0.04	inactive: -0.007	inactive: -0.013	inactive: 0.033	inactive: 0.069	inactive: -0.089
CYP51A1 (UniProt Q16850)	inactive: 0.02	inactive: -0.019	inactive: 0.156	inactive: -0.03	inactive: 0.092	inactive: -0.016	inactive: -0.016	inactive: -0.143	active: 1.27	inactive: 0.047	inactive: -0.018	inactive: -0.004	inactive: 0.024	inactive: -0.033	inactive: -0.045	inactive: 0.119	inactive: 0.006	inactive: 0.001	active: 0.964	inactive: -0.112
DCAF6 isoform 3 (UniProt Q58WW2)	inactive: -0.071	inactive: 0.009	inactive: 0.009	inactive: 0.02	inactive: 0.008	inactive: -0.013	inactive: -0.016	inactive: 0.031	inactive: 0.027	inactive: 0.017	inactive: 0	inactive: 0.019	inactive: 0.026	inactive: 0.007	inactive: -0.005	inactive: 0.003	inactive: 0.021	inactive: 0.045	inactive: -0.009	inactive: -0.008
DAG1 (UniProt Q14118)	inactive: 0.03	inactive: -0.076	inactive: 0.085	inactive: 0.003	inactive: 0.025	inactive: -0.008	inactive: -0.001	inactive: 0.073	inactive: 0.035	inactive: 0.05	inactive: -0.035	inactive: 0.123	inactive: 0.081	inactive: -0.054	inactive: -0.013	inactive: 0.023	inactive: -0.015	inactive: -0.005	inactive: -0.015	inactive: -0.001
CYBA (UniProt P13498)	active: -0.24	inactive: -0.06	inactive: 0.01	inactive: 0.034	inactive: -0.077	inactive: 0.026	inactive: 0.002	inactive: 0.004	inactive: 0	inactive: 0.006	inactive: -0.028	inactive: -0.141	inactive: -0.044	inactive: -0.13	inactive: -0.004	inactive: 0.018	inactive: -0.01	inactive: 0	inactive: -0.01	inactive: -0.041
DCAF1 (UniProt Q9Y4B6)	inactive: 0.011	inactive: -0.013	inactive: 0.03	inactive: -0.095	inactive: -0.083	inactive: -0.063	inactive: 0.037	inactive: 0.006	inactive: 0.006	inactive: 0.037	inactive: -0.04	inactive: -0.018	inactive: -0.064	inactive: -0.045	inactive: 0.008	inactive: 0.03	inactive: 0.009	inactive: 0.019	inactive: -0.102	inactive: -0.04
CUTA isoform 2 (UniProt O60888)	inactive: -0.148	inactive: 0.1	inactive: 0.016	inactive: 0.016	inactive: 0	inactive: -0.01	inactive: 0.07	inactive: 0.09	inactive: 0.123	inactive: 0.028	inactive: -0.022	inactive: 0.153	inactive: 0.013	inactive: 0.063	inactive: 0.019	inactive: -0.005	inactive: 0.113	inactive: -0.031	inactive: -0.132	inactive: -0.046
CTU2 (UniProt Q2VPK5)	inactive: -0.038	inactive: 0.013	inactive: -0.012	inactive: 0.004	inactive: -0.101	inactive: -0.041	inactive: 0.032	inactive: 0.071	inactive: -0.044	inactive: 0.052	inactive: -0.035	inactive: -0.067	inactive: -0.098	inactive: 0.136	inactive: 0.006	inactive: 0.024	inactive: 0.011	inactive: 0.016	inactive: -0.037	inactive: 0.008
